From patent publication US20220315908A1, “NOVEL GARDNERELLA ENDOLYSINS AND USES THEREOF” (priority 2019, published 2022)
Converted amounts (≈) assume the structure as drawn. Where a name gives a salt, the structure may show the parent alone.

How the values were obtained:
G. swidsinskii (Gv_23) = experiment: MIC and MBC microbroth dilution; type: cell-based, Gardnerella swidsinskii; details: for MIC / MBC: Gardnerella swidsinskii; for MIC: 48 h
Description: (§1) One of the main deficiencies in the treatment of BV is the high rate of recurrence in many women, which leads to repeated administration of antibiotics and concomitant destabilization of the microbiome and other side effects. The minimal inhibitory concentration (MIC) and minimal bactericidal concentration (MBC) on Gardnerella cells of the strains also used for the endolysin activity assays were then measured using the method described in Reference Example 6 and 7. […] Essentially, Gardnerella suspensions at 2.5×10^7 CFU/ml were incubated with the concentration of antibiotics as indicated and incubated for 48 h at 37° C. under anaerobic conditions. […] OD(610) was measured at the beginning and the end of the experiment. At the end of the experiment, 2 ul of each reaction mix was spotted on agar to determine the MBC.
(§2) The conditions under which MIC and MBC were measured are more rigorous than the standard.
(§3) Example 7—Activity assays of a representative (H2B10) of domain swapped endolysins on the growth in suspension of different Gardnerella strains. […] The conditions under which MBC was measured are more rigorous than the standard. […] In general, it is known, that antibiotics only insufficiently eradicate the Gardnerella biofilm, a hallmark of BV, which is one suspected reason for the reported very high recurrence rate of BV. Despite leaving residual viable biofilm, antibiotics wipe parts of the beneficial organisms of the vaginal microbiome which then opens an ecological niche for other pathogens, e.g. fungi.
(§4) Bacteria were plated from cryo stock on BD Choc Agar plates (Gardnerella) and incubated at 37° C. for 48 h under anaerobic conditions. Colonies were scraped from the plate, resuspended in Hardy Broth or NYC-III-HS-pH 5.0, and the suspension adjusted to OD (610 or 620 nm as indicated) 0.05. It has to be noted that two Tecan Microplate readers, having respectively a 610 nm or 620 nm filter, have been used interchangeably in the experiments. Although it doesn't make any difference for the experiments, the exact wavelength used is specified in each example. Antibiotics were prepared as 20× stocks for each of the required final concentrations. 95 μl of cell suspension was mixed with 5 μl antibiotics dilution in a 384-well plate. OD (610-620 as indicated) at the start of the reaction was measured, then the plate was incubated at 37° C. for 48 h under anaerobic conditions. After that, the OD (610-620 as indicated) was measured again for MIC determination, where MIC was defined as the lowest concentration of antibiotic where the OD (610-620 as indicated) was not above the level measured at the beginning of the experiment. After measuring OD, 2 μl of each well were spotted on a NYC-III+HS Agar plate. The plates were then incubated for further 48 h at 37° C. under anaerobic conditions. After incubation, cell growth on each spot was evaluated, and the MBC defined as the lowest concentration of antibiotics where no bacteria grew on the plate. The experiments were conducted in triplicate for each condition. In the second round of MIC and MBC experiments with antibiotics the Gardnerella cell suspension was adjusted to the McFarland standard 0.5 (approximately OD (610) 0.07) and then diluted 1:75 according to the CLSI (Clinical and Laboratory Standards Institute) standards. Antibiotics were prepared according to the CLSI standards and 50 μl of cell suspension was mixed in a 96-well plate with 50 μl antibiotics. Otherwise the MIC and MBC was determined as described above.

G. leopoldii (Gv_11) = experiment: MIC and MBC microbroth dilution; type: cell-based, Gardnerella leopoldii; details: for MIC / MBC: Gardnerella leopoldii; for MIC: 48 h
Description: as §1, §2, §3, §4

G. vaginalis (Gv_9) = experiment: MIC and MBC microbroth dilution; type: cell-based, Gardnerella vaginalis; details: for MIC / MBC: Gardnerella vaginalis; for MIC: 48 h
Description: as §1, §2, §3, §4

G. piotii (Gv_17) = experiment: MIC and MBC microbroth dilution; type: cell-based, Gardnerella piotii; details: for MIC / MBC: Gardnerella piotii; for MIC: 48 h
Description: as §1, §2
as §4, with “above. For the MIC and MBC determination of the domain swapped endolysin H2B10 50 μl of Gardnerella cell suspension was mixed in a 96-well plate with 50 μl of H2B10 containing solution, which where serially diluted 1:1. OD610 at the start of the reaction was measured, then the plate was incubated at 37° C. for 48 h under anaerobic conditions. After that, the OD(610) was measured again for MIC determination, where MIC was defined as the lowest concentration of H2B10 where the OD was not or only slightly above the level measured at the beginning of the experiment.” for “above.”

[1] = tested on: all tested Gardnerella strains; experiment: MIC and MBC microbroth dilution, stated over all tested strains; type: cell-based; details: 48 h, first round: 2.5×10^7 CFU/ml, 48 h anaerobic (FIG. 14)
Description: as §1, with “At the end of the experiment, 2 ul of each reaction mix was spotted on agar to determine the MBC.” left out
as §2
Example 7—Activity assays of a representative (H2B10) of domain swapped endolysins on the growth in suspension of different Gardnerella strains. […] The conditions under which MBC was measured are more rigorous than the standard. […]
Bacteria were plated from cryo stock on BD Choc Agar plates (Gardnerella) and incubated at 37° C. for 48 h under anaerobic conditions. […] It has to be noted that two Tecan Microplate readers, having respectively a 610 nm or 620 nm filter, have been used interchangeably in the experiments. […]

[2] = first round: 2.5×10^7 CFU/ml, Hardy broth, 384-well, 48 h 37° C. anaerobic
[3] = first round: 2.5×10^7 CFU/ml, minimal concentration fully eradicating the suspension
[4] = second round: 1×10^5-1×10^6 CFU/ml (CLSI), NYC-III broth, 96-well, 48 h anaerobic
[5] = second round: 1×10^5-1×10^6 CFU/ml (CLSI), NYC-III broth, 96-well

## CCC[C@@H]1C[C@@H](C(=O)N[C@@H]([C@H]2O[C@H](SC)[C@H](O)[C@@H](O)[C@H]2O)[C@H](C)Cl)N(C)C1 [Clindamycin]
G. swidsinskii (Gv_23); [2]
  MIC: 16 µg/mL (≈ 37.6 µM)
G. swidsinskii (Gv_23); [3]
  MBC: > 128 µg/mL
G. swidsinskii (Gv_23); first round
  resistance class of MIC, Clindamycin: R (>8 mg/mi for Clindamycin)
G. leopoldii (Gv_11); [2]
  MIC: 16 µg/mL (≈ 37.6 µM)
G. leopoldii (Gv_11); [3]
  MBC: 32 µg/mL (≈ 75.3 µM)
G. leopoldii (Gv_11); first round
  resistance class of MIC, Clindamycin: R (>8 mg/mi for Clindamycin)
G. vaginalis (Gv_9); [2]
  MIC: 16 µg/mL (≈ 37.6 µM)
G. vaginalis (Gv_9); [3]
  MBC: 128 µg/mL (≈ 301 µM)
G. vaginalis (Gv_9); first round
  resistance class of MIC, Clindamycin: R (>8 mg/mi for Clindamycin)
G. piotii (Gv_17); [2]
  MIC: 16 µg/mL (≈ 37.6 µM)
G. piotii (Gv_17); [3]
  MBC: 64 µg/mL (≈ 151 µM)
G. piotii (Gv_17); first round
  resistance class of MIC, Clindamycin: R (>8 mg/mi for Clindamycin)
[1]
  MIC: 16 µg/mL (≈ 37.6 µM)

## CCC[C@@H]1C[C@@H](C(=O)N[C@@H]([C@H]2O[C@H](SC)[C@H](O)[C@@H](O)[C@H]2O)[C@H](C)Cl)N(C)C1 [Clindamycin hydrochloride]
G. swidsinskii (Gv_23); [4]
  MIC: 0.25 µg/mL
G. swidsinskii (Gv_23); [5]
  MBC: 0.25 µg/mL
G. leopoldii (Gv_11); [4]
  MIC: 0.5 µg/mL
G. leopoldii (Gv_11); [5]
  MBC: 1 µg/mL
G. vaginalis (Gv_9); [4]
  MIC: 0.25 µg/mL
G. vaginalis (Gv_9); [5]
  MBC: 0.5 µg/mL
G. piotii (Gv_17); [4]
  MIC: 0.25 µg/mL
G. piotii (Gv_17); [5]
  MBC: 1 µg/mL
